# From paper PMC11166663
# Amino acid sequences for entries named in this document (tags omitted).
# UniProt Q9Y4B6: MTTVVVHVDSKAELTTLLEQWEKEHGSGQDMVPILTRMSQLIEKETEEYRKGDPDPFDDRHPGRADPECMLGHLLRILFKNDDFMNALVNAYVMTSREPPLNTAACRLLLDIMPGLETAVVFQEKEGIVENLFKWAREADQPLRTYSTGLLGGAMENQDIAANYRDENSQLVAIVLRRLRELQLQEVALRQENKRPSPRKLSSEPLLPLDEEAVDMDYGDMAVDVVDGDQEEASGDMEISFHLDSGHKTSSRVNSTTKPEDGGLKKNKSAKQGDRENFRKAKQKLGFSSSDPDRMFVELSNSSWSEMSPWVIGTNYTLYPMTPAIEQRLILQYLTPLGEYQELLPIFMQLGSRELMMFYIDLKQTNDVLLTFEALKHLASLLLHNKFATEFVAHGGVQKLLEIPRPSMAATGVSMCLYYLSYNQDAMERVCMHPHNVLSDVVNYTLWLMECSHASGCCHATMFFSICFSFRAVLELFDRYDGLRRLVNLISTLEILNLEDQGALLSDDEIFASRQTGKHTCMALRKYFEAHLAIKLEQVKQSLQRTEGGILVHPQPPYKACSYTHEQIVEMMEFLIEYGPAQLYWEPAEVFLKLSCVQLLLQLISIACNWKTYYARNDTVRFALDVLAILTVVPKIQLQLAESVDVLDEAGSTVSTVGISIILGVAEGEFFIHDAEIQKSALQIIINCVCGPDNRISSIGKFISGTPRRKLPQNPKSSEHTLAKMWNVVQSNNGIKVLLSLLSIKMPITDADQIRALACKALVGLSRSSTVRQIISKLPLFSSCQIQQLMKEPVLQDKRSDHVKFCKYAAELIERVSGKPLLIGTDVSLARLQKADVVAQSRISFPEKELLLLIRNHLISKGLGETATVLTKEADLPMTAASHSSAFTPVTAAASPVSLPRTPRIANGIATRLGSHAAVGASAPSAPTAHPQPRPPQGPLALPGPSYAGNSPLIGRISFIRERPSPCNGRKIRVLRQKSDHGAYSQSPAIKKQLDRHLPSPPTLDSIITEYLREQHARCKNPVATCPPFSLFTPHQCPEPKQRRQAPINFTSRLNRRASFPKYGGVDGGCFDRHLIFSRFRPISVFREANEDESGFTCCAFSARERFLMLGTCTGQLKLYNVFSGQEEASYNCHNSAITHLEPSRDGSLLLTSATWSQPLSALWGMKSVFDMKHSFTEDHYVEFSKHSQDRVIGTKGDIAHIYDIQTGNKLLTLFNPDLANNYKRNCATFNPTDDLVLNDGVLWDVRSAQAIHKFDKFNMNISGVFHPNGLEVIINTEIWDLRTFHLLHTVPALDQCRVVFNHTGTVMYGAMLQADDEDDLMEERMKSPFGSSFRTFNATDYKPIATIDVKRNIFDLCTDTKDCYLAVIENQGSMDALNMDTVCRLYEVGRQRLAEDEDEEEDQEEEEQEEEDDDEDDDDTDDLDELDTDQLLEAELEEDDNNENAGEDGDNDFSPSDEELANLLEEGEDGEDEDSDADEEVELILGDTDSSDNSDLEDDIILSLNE
# Target: Rheb (bait of the Rheb-associated immunoprecipitated complex analysed by mass spectrometry) (UniProt Q15382)
# Assay: affinity purification with mass spectrometry; mass spectrometry of the Rheb-associated immunoprecipitated complex; cells and antibody not stated
row,binding,Substance
1,binds,"CUL4a, endogenous (from UniProt Q13619 1-759)"
2,binds,"DDB1-CUL4-associated factor 1 (DCAF1), endogenous (from UniProt Q9Y4B6 1-1507)"
3,binds,"DDB1, endogenous (from UniProt Q16531 1-1140)"

# Results are given in words; binding and its absence hold for the method and conditions named. In cells and extracts the contact can be indirect. These calls come from enrichment with a bait or labelling near it, and not all partners need be listed.
